The text below walks through data of publication PMC3150357.

The exact form of at least one protein or probe is not confirmed. At least one result comes from cells or an extract, where the contact may be indirect. For some of these results: Negatives hold for the conditions tested. Protein sequences can lack the tags named with them.

For series [1], the target named is T1, ISL1 (Islet 1, LIM-homeodomain) (UniProt P61372).
T1 sequence (looked up, limits assumed): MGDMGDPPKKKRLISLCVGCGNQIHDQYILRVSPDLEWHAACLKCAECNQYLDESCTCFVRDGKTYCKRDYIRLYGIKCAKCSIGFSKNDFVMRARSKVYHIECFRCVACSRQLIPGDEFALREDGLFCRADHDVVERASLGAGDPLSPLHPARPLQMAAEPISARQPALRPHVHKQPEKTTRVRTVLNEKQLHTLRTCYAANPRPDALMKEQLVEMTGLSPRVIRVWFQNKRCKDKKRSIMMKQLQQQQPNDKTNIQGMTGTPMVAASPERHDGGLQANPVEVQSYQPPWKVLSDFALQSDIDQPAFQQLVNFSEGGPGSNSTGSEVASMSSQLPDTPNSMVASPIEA
Kind of series: EMSA with anti-ISL1 antibody (complex attenuated). The settings on record: 10 µg nuclear protein, 0.25 ng (20 kcpm) 32P duplex, 20 µl, 4°C, 6% native PAGE; buffer composition, salt and pH not stated; protein in an extract; label: 32P.

The target in series [2] is T1, ISL1 (Islet 1, LIM-homeodomain). Kind of series: competition with a labelled probe. To be noted: 10 µg nuclear protein, 0.25 ng (20 kcpm) 32P duplex, 20 µl, 4°C, 6% native PAGE, buffer composition, salt and pH not stated, protein in an extract, label: none (unlabeled competitor).

For the sequence “ATTAGAGTCGGCTTTTAATTAGTTAACACACAC (double strand) [Wild-type c-Myc probe]”, the binding result in series [1] is “binds”. In the case of “AATTTAATTTCTTTTTTAATTAAAAAAAATGAGTC (double strand) [Wild-type CyclinD1 probe]”, the binding result in series [1] is reported as “binds”. Turning to “AATTTAATTTCTTTTTGCCGTAAAAAAAATGAGTC (double strand) [Mutant CyclinD1 probe]”, the binding result in series [2] (unlabeled competitor against labeled N3) is on record as “no binding”.

On to “ATTAGAGTCGGCTTTGCCGTAGTTAACACACAC (double strand) [Mutant c-Myc probe]”, for which the binding result in series [2] (unlabeled competitor against labeled N1) is given as “no binding”.
